Results from one PubChem assay

Data taken from PubChem BioAssay AID463188, deposited by University of Pittsburgh Molecular Library Screening Center (2010).

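A z-score from a phospho-tyrosine peptide counterscreen run alongside a FRET kinase assay of purified Hck-YEEI bound to Nef, read after timed room-temperature incubations. Compounds were tested at a single concentration of 10 µM. The number is a z-score for the p-Tyr peptide counterscreen; higher values mean a stronger counterscreen signal, and values above 3 mark a compound as likely interfering.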

Common to all entries: measured here: p-Tyr peptide counterscreen. This is a side read-out of the assay, for part of the compounds, not drawn at random.

structure	z-score
C(=N\Nc1ncnc2nc[nH]c12)/c1cccs1	-1.076
Cc1ccccc1/C=N/Nc1ncnc2nc[nH]c12	-1.738
O=C(Nc1ccc(NC(=O)c2sc3ccccc3c2Cl)cc1Cl)c1ccco1	-1.472
COc1ccc(C(=O)Nc2cccc(/C=C/c3nc4ccccc4c(=O)[nH]3)c2)cc1	1.56
N#Cc1c(-c2ccco2)nc(SCC(=O)Nc2cccc(Cl)c2)[nH]c1=O	1.874
COc1cc(/C=C/c2sc3ccccc3[n+]2CCCS(=O)(=O)[O-])ccc1O	0.9518
COc1cc2nc(Cl)nc(N3CCOCC3)c2cc1OC	1.174
CC(=O)/C(=C(/O)c1ccccc1)c1nc2ccccc2[nH]1	0.4257
O=c1c2c3c(sc2[nH]c(=S)n1Cc1ccco1)CCC3	-1.676
CN1C(=O)C(=Cc2coc3ccccc3c2=O)C(=O)N(C)C1=O	-0.7276
CC(=O)N(C(C)=O)c1ncnc2c1c(-c1ccc(Cl)cc1)nn2C(C)(C)C	-0.8861
O=C1COc2ccc(-c3csc(NCCc4ccccc4)n3)cc2N1	-0.1365
Cc1ccc(C)n1Cc1ccc(C(=O)O)cc1	0.8009
COCc1cc(C)nc(OCC(=O)N/N=C/c2ccc(-c3cc([N+](=O)[O-])ccc3Cl)o2)c1C#N	0.5476
O=C1COc2ccc(C(=O)CSc3nc4ccccc4c(=O)n3-c3ccc(Cl)c(Cl)c3)cc2N1	-0.00693
COc1ccccc1C(=O)Nc1ccc(-c2nnn(CC(=O)NCc3ccco3)n2)cc1	0.3816
O=c1/c(=C\c2cc([N+](=O)[O-])cc([N+](=O)[O-])c2O)sc2nc3ccccc3n12	-1.949
CSc1sc(-c2ccnc(SCCS(C)(=O)=O)n2)c(-c2ccccc2)c1C#N	4.629
Cc1cc(NC(=O)c2cccs2)n(-c2nc3ccccc3[nH]2)n1	-1.879
O=C(O)c1cccc(N2C(=O)/C(=C/c3ccc(SCc4ccc(Cl)cc4)o3)SC2=S)c1	-2.367
CCn1c(SCC(=O)Nc2ccc(-c3nc4ccc(C)cc4s3)cc2)nnc1-c1ccccc1	-0.7617
COc1cc([N+](=O)[O-])ccc1-c1ccc(/C=N/NC(=O)c2ccccc2O)o1	-1.991
O=C1N=c2ccccc2=C1c1sc(Nc2ccc(O)cc2)nc1O	-1.701
S=c1[nH]nc(-c2ccco2)n1/N=C/c1c(Cl)cccc1Cl	-1.128
Cc1ccc(C(=O)Nc2cccc(C(F)(F)F)c2)cc1NC(=O)c1cnnc2ccccc12	-0.7534
Cc1cc2nc(-c3ccc(SCc4ccc(C(=O)O)cc4)nc3)[nH]c2cc1C	-1.812
O=C(O)c1ccc(-c2ccc(/C=C3\NC(=O)N(Cc4ccc(Cl)cc4)C3=O)o2)cc1Cl	2.183
Cc1c2c(n3c(nc4ccccc43)c1C#N)N(CCCN(C)C)CC2	51.82
Cc1ccc(C(=O)NC(C)c2nc3ccccc3n2CC(=O)Nc2c(C)cc(C)cc2C)cc1 (centres undefined)	-1.215
O=C(Nc1cc(S(=O)(=O)N2CCOCC2)ccc1N1CCCC1)c1ccc2c(c1)S(=O)(=O)c1ccccc1C2=O	-1.893
O=C(Nc1ccccc1)Nc1snnc1C(=O)Nc1cccc(O)c1	-0.6782
O=C(CN(Cc1cccs1)C(=O)CNS(=O)(=O)c1ccc(Cl)cc1)NCC1CCCO1 (centres undefined)	0.4122
Cc1cc2nc(-c3ccc(SCC(=O)Nc4ccc(S(=O)(=O)NC5CC5)cc4)nc3)[nH]c2cc1C	-0.683
COc1ccc(OCC(=O)Nc2nc3ccc(NC(C)=O)cc3s2)cc1	-0.5434
CC(=O)Nc1sc(N/N=C/c2ccccc2)nc1-c1ccc(C)cc1	-0.3354
NCCCCCC(=O)N/N=C/c1coc2ccccc2c1=O	-1.022
COc1ccc(-c2cnnc(N/N=C/c3ccc(O)cc3)n2)cc1	-0.3723
Cc1cn(-c2cc(C(=O)Nc3ccc(C)c(NC(=O)C(=O)c4c[nH]c5ccccc45)c3)cc(C(F)(F)F)c2)cn1	-1.277
Cc1cc(-c2csc(NC(=O)c3ccc(=O)[nH]c3)n2)c(C)n1Cc1ccco1	-0.1672
COc1cccc(/C=N/Nc2ncnc3c2[nH]c2ccc(C)cc23)c1OC	0.3387
C=CCN=c1scc(-c2ccco2)n1/N=C/c1ccc(O)c(O)c1O	-0.6879
CCN(CC)C(=O)Cc1c(O)c2ccccc2[nH]c1=O	-1.765
CCc1ccc(/C=N/Nc2ncnc3nc[nH]c23)cc1	-0.921
CCNC(=O)c1c(NC(=O)c2cc(-c3cc(C)ccc3O)n[nH]2)sc2c1CCCC2	0.07146
O=C(Nc1cccc(S(=O)(=O)NC2=NCCCCC2)c1)c1cc(-c2ccco2)nc2ccccc12	-1.661
CCOC(=O)c1sc(N2N=C(C)C(N=Nc3cccc(C)c3)C2=O)nc1C (centres undefined)	-0.03153
O=C(CSc1nnc(SCc2ccccc2)s1)N/N=C/c1c[nH]c2ccccc12	0.5287
C=CCn1cc(/C=C2/NC(=O)NC2=O)c2ccccc21	-1.375
CCCn1nc(NC(=O)C2CCCO2)c2cc3cccc(C)c3nc21 (centres undefined)	41.77
COc1cc(NS(=O)(=O)c2ccc(NC(=S)NC(=O)/C=C/c3ccco3)cc2)ncn1	-1.762
Cc1cc(O)ccc1Nc1nc(-c2sc(N)nc2C)cs1	1.803
Cc1cccc(-n2cnc(C(=O)N/N=C\c3ccc(Br)cc3)c2)n1	-1.561
COc1ccc(-c2cc3ccccc3oc2=O)cc1NC(=S)NC(=O)c1ccc2c(c1)OCCO2	2.091
O=C1NC(=O)N(Cc2ccccc2)C(=O)/C1=C\C=C\c1ccco1	-1.008
Cc1nc(Nc2ccc(C(=O)O)cc2)sc1-c1ccccc1	0.236
Oc1ccc(/C=N/NC(=S)Nc2cccnc2)c(O)c1O	0.7444
Cc1c(N=C2C=C(Br)C(=O)C(Br)=C2)c(=O)n(-c2ccccc2)n1C	-0.8867
CC(C)n1cnc2c(Nc3cccc(F)c3)nc(NCCO)nc21	-1.183
CN(C(=O)c1sc2nc(N3CCOCC3)c3c(c2c1N)CCCC3)c1ccccc1	6.252
COc1ccc(NC(=O)c2cc([N+](=O)[O-])ccc2O)cc1	-0.8147
COc1ccc2cc(N=Cc3nc(-c4ccc(C)cc4)oc3O)cnc2c1	-1.18
O=C(c1cnn(C(=O)COc2ccc(Cl)cc2)c1)c1ccccc1O	0.511
O=C(Nc1cccc(-c2nc3cccnc3s2)c1)C1c2ccccc2Oc2ccccc21	-0.5709
COc1ccc(-n2nc(C(=O)Nc3ccc(OC)c(OC)c3)c3c4ccccc4n(C)c3c2=O)cc1	1.088